The values that follow come from article PMC6925144, “A prospective compound screening contest identified broader inhibitors for Sirtuin 1” (Scientific Reports, 2019).

By UniProt entry, the sequences of proteins in these tests, tags left out. Residues count along the entry.
UniProt Q96EB6, 2-747 limits assumed: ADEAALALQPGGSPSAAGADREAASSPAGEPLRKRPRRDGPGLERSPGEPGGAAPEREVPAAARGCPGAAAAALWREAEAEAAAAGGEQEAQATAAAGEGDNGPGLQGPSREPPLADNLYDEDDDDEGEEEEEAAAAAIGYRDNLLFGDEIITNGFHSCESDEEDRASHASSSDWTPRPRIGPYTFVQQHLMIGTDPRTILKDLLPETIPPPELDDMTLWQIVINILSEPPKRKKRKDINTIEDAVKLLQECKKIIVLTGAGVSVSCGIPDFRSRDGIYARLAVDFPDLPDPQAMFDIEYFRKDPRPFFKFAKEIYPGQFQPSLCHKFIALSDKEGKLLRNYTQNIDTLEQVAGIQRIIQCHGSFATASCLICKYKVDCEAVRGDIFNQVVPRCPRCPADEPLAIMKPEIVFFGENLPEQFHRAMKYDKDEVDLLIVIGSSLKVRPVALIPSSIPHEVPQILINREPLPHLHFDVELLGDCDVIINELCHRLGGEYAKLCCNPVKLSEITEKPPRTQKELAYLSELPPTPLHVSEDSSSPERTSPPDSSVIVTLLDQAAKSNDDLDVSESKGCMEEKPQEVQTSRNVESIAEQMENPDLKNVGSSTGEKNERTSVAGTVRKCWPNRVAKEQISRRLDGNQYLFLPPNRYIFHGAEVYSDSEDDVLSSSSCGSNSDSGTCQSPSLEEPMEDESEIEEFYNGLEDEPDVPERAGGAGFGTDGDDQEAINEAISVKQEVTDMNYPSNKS

Over roughly 3,200 compounds, “TSA(without NAD+) / Primary screening (TSA) / delta Tm (K)” has its median near -0.07; the highest 2% begin near 0.37. Some of the results follow.

The experiment addresses NAD-dependent deacetylase Sirtuin 1 (human, UniProt Q96EB6). Put plainly: primary screen, delta tm. Further details: single well (n = 1). The note with it: 10 µM. The essentials: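 Thermal shift of Sirtuin 1 measured without NAD+, compound at 10 µM (n = 1); value is ΔTm, with hits defined as ΔTm > 0.45 K or < −1.5 K. Hits retested at 5, 10, 20 µM (n = 4) and counterscreened on bovine carbonic anhydrase and ABL1 SH2 domain.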
As to `COc1ccc(NS(=O)(=O)c2cccs2)cc1S(N)(=O)=O`, the “TSA(without NAD+) / Primary screening (TSA) / delta Tm (K)” value was -0.13 K.
In the case of `Cc1nc2ccccc2c(C)c1CC(=O)Nc1ccc(N2CCN(Cc3ccccc3)CC2)cc1` it was 0.25 K; in that of `Cc1ccc(N(C)S(=O)(=O)c2cccc(C(=O)Nc3ccc(C)cc3C)c2)cc1`, -0.03 K; in that of `Cc1cc2oc(=O)cc(CN3C(=O)NC4(CCCCC4)C3=O)c2cc1C`, -0.12 K.
Then `COc1ccc(-c2noc(CN3CCN(c4ncnc5sc6c(c45)CCC(C)C6)CC3)n2)cc1` (stereo not shown), with 0.02 K; and `CCS(=O)(=O)NCCC(=O)O`, with -0.14 K.
Then `CC(C)c1ccc(C(NC(=O)c2cccc(C(N)=O)c2)c2cccs2)cc1` (stereo not shown), with -0.18 K; and `COCCNC(=O)CSc1ccccc1C(=O)Nc1ccc(C(N)=O)cc1`, with -0.04 K.
As to `COc1cc(CN(C)C(=O)c2cccc(C#N)c2)ccc1OCc1ccccc1`, the “TSA(without NAD+) / Primary screening (TSA) / delta Tm (K)” value amounted to 0.07 K.
In the case of `CCC(CO)Nc1ncnc2ccsc12` (stereo not shown) it was -0.08 K; in that of `Cc1nc(NCc2cncnc2)ccc1I`, -0.27 K; in that of `O=S(=O)(NC1=NCCC1)c1cccc(NS(=O)(=O)c2ccc(C34CC5CC(CC(C5)C3)C4)cc2)c1`, 0.15 K.
Then `O=C(Nc1cccc(S(=O)(=O)NC2=NCCC2)c1)c1cnc2ccccc2n1`, with -0.05 K.
In the case of `Cc1ccc(C)c(CN(C)CC(N)=O)c1` it was 0.02 K.
For `NCCNC1CC1`, the “TSA(without NAD+) / Primary screening (TSA) / delta Tm (K)” value is reported as -0.21 K.
Then `CN(c1ccc(S(N)(=O)=O)cc1)S(=O)(=O)c1cccc(C#N)c1`, with -0.12 K; and `Cc1cccc(C=C2C(=O)NC(=S)NC2=O)c1`, with -0.07 K; and `CCC(CC)N(c1ccc(C)c(C)c1)S(=O)(=O)c1cnc2c(c1)c(=O)[nH]c(=O)n2C`, with -0.23 K.
Then `CC(OC(=O)CC1Oc2ccccc2NC1=O)C(=O)Nc1ccc(C(N)=O)cc1` (stereo not shown), with -0.12 K.
Then `CC(CN)N(C)C` (stereo not shown), with -0.17 K; and `CCN(Cc1cccc(F)c1)C(=O)c1cnc2ccccn2c1=O`, with -0.24 K.
For `Cc1noc(C)c1COc1ccc(C(=O)N2CCCC2c2ccc[nH]2)cc1` (stereo not shown), the “TSA(without NAD+) / Primary screening (TSA) / delta Tm (K)” value was found to be 0.08 K.
In the case of `COc1cc(SC)ccc1C(=O)N(Cc1ccccc1)c1ccccc1` it was -0.22 K.
In the case of `COc1ccc(NC(=S)NN)cc1OC` it was 0.37 K.
With `Fc1ccc(-n2ncc3c(S)ncnc32)cc1`, the “TSA(without NAD+) / Primary screening (TSA) / delta Tm (K)” value is on record as -0.24 K.
With `CN(c1ccccc1)S(=O)(=O)c1cccc(C(=O)OCc2cc(=O)oc3cc(O)ccc23)c1`, the “TSA(without NAD+) / Primary screening (TSA) / delta Tm (K)” value was found to be 0.18 K.
For `C#CCCN`, the “TSA(without NAD+) / Primary screening (TSA) / delta Tm (K)” value is recorded as -0.24 K.
In the case of `N#Cc1ccc(F)c(CNC(=O)NC2CCCCNC2=O)c1` (stereo not shown) it was 0.06 K; in that of `Cc1nc2ncnn2c(N2CCC(C(=O)Nc3cccnc3)CC2)c1C`, -0.04 K.
Then `COc1cc(CN(C)C(=O)Cc2c(C)nc3ccccc3c2C)ccc1OCc1ccccc1`, with -0.08 K; and `NS(=O)(=O)c1cccc(NC(=O)CSc2n[nH]c(=O)n2Cc2ccccc2)c1`, with -0.08 K; and `COc1cc(CN(C)C(=O)c2cccc(NC(C)=O)c2)ccc1OCc1ccccc1`, with 0.02 K.
In the case of `O=C(c1sc(N2CCOCC2)nc1-c1ccccc1)c1c[nH]c2ccccc12` it was -0.03 K; in that of `CC(C)n1c(S)nnc1CCNC(=O)/C=C/c1ccc(Br)o1`, -0.05 K; in that of `Cc1ccc2[nH]cc(C(=O)C(F)(F)F)c2c1`, -0.07 K.
`CN(CC12CC3CC(CC(C3)C1)C2)C(=O)c1cc2ccccc2oc1=O`: the “TSA(without NAD+) / Primary screening (TSA) / delta Tm (K)” value was -0.02 K.
On to `Cc1ccc(-c2csc3ncn(CC(=O)NCC(=O)Nc4cccc(C)c4C)c(=O)c23)s1`, for which the “TSA(without NAD+) / Primary screening (TSA) / delta Tm (K)” value came out at 0.03 K.
Then `CCCNC(=O)CN1CCN(c2c(C)cnc3ccccc23)CC1`, with -0.07 K.
Then `CCOC(=O)c1ncn(C2CCN(c3ncnc4c(F)cccc34)CC2)c1N`, with -0.18 K; and `CCS(=O)(=O)c1ccc(N2CCC(Cc3cccnc3)CC2)cc1`, with -0.13 K; and `O=c1[nH]c(CN(Cc2ccco2)C2CCCC2)nc2c1oc1ccccc12`, with -0.11 K.
In the case of `O=c1[nH]cnc2c1nnn2-c1ccccc1` it was -0.12 K.
On to `Clc1ccc2c(N3CCN(Cc4ccc5c(c4)CCO5)CC3)ncnc2c1`, for which the “TSA(without NAD+) / Primary screening (TSA) / delta Tm (K)” value was found to be 0.08 K.
In the case of `COc1ccc(OCC(=O)NCC2(C)CC(NC(=O)COc3ccc(OC)cc3)CC(C)(C)C2)cc1` (stereo not shown) it was -0.02 K; in that of `O=C(OCc1ccc(COC(=O)c2ccncc2)cc1)c1ccncc1`, -0.07 K; in that of `Cc1ccc2c(c1)CCCN2C(=O)CCn1ncc(=O)c2ccccc21`, -0.22 K.
In the case of `Cc1ccc2[nH]c(C(=O)O)cc2c1` it was -0.11 K; in that of `N#Cc1ccccc1CN1CCC(OC(=O)C2=COCC2)CC1`, -0.23 K; in that of `CCc1nn2c(=O)cc(CN3CCCc4ccccc43)nc2s1`, -0.08 K.
In the case of `COc1cccc(C(=O)C2=C(O)C(=O)N(CCCN3CCOCC3)C2c2ccc(C)cc2)c1` (stereo not shown) it was -0.12 K; in that of `COc1ccc(N(C)S(=O)(=O)c2cccc(C(=O)Nc3sccc3C#N)c2)cc1`, 0.03 K.
Turning to `CCOC(=O)c1c(NC(=O)C(C)OC(=O)CNC(=O)c2cc(C)cc(C)c2)sc2c1CCC(C)C2` (stereo not shown), the “TSA(without NAD+) / Primary screening (TSA) / delta Tm (K)” value is given as -0.05 K.
Then `Cc1cncc(CCCN2CCN(c3ccc(C#N)cc3F)CC2)c1`, with -0.05 K.
In the case of `O=c1[nH]cnc2c1cnn2-c1cccc(Cl)c1` it was -0.13 K.
Then `CCCOc1ccc(C(=O)C2=C(O)C(=O)N(CCCN3CCOCC3)C2c2cccc(OC)c2)cc1` (stereo not shown), with -0.02 K; and `COc1ccc(C(=O)C2=C(O)C(=O)N(CCCN3CCOCC3)C2c2ccc(N(C)C)cc2)cc1` (stereo not shown), with -0.23 K.
With `CCCCOc1cc(C2NC(N)=Nc3nc4ccccc4n32)ccc1OC` (stereo not shown), the “TSA(without NAD+) / Primary screening (TSA) / delta Tm (K)” value was -0.17 K.
In the case of `CCc1cc2c(N3CCCC(C)C3)ncnc2s1` (stereo not shown) it was -0.28 K.
Then `C=C(C)COCCN`, with -0.13 K.
In the case of `c1ccc2sc(-c3nc4c5ccccc5ncn4n3)cc2c1` it was 0.17 K.
Turning to `O=C(COC(=O)CNC(=O)C12CC3CC(CC(C3)C1)C2)Nc1ccccc1Cc1ccccc1`, the “TSA(without NAD+) / Primary screening (TSA) / delta Tm (K)” value worked out at 0.13 K.
